Test results taken from PMC6768663.
Results are given in words; binding and its absence hold for the method and conditions named. Binding seen in cells or lysates may run through a third protein. These calls come from enrichment with a bait or labelling near it, and not all partners need be listed.

Chains of the proteins cited; added tags and fusions are not shown. Residues count along the entry.
UniProt Q9EQT3: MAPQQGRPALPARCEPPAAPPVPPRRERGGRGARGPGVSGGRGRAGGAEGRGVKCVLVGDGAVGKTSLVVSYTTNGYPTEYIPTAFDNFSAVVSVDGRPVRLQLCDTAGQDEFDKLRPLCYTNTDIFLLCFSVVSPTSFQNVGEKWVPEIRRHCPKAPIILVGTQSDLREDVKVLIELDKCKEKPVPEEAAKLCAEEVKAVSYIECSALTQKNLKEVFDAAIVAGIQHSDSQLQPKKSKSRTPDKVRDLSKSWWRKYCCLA
UniProt Q8CIN4: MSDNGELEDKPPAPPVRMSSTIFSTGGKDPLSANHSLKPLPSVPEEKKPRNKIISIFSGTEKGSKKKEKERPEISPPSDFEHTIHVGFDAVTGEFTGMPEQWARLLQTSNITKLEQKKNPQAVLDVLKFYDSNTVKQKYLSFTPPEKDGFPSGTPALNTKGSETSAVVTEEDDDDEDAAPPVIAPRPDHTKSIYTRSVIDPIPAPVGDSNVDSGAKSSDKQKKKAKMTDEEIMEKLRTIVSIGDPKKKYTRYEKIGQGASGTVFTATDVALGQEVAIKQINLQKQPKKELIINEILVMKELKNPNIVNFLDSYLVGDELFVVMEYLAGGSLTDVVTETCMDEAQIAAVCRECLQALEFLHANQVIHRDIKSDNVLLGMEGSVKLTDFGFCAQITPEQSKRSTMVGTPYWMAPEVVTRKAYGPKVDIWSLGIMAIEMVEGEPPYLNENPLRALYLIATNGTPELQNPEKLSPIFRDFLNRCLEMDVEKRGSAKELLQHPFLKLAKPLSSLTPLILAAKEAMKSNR
UniProt Q8VI36: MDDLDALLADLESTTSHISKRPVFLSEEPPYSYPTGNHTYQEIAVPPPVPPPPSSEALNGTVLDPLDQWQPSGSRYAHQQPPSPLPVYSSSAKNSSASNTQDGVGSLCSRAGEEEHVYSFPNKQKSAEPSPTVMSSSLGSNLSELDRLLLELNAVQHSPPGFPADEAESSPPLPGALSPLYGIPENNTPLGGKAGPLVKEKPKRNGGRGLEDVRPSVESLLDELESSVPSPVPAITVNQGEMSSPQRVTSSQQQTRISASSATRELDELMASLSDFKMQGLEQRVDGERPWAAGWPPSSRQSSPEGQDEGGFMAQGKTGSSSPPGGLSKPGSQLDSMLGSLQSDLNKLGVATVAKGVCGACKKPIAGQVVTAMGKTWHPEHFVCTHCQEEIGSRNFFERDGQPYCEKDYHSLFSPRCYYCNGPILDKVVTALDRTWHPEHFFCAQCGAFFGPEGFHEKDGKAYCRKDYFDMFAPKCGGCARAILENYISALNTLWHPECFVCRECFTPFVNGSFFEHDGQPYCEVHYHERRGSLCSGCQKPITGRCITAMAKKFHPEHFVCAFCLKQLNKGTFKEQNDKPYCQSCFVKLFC
UniProt P09055, residues 21-798: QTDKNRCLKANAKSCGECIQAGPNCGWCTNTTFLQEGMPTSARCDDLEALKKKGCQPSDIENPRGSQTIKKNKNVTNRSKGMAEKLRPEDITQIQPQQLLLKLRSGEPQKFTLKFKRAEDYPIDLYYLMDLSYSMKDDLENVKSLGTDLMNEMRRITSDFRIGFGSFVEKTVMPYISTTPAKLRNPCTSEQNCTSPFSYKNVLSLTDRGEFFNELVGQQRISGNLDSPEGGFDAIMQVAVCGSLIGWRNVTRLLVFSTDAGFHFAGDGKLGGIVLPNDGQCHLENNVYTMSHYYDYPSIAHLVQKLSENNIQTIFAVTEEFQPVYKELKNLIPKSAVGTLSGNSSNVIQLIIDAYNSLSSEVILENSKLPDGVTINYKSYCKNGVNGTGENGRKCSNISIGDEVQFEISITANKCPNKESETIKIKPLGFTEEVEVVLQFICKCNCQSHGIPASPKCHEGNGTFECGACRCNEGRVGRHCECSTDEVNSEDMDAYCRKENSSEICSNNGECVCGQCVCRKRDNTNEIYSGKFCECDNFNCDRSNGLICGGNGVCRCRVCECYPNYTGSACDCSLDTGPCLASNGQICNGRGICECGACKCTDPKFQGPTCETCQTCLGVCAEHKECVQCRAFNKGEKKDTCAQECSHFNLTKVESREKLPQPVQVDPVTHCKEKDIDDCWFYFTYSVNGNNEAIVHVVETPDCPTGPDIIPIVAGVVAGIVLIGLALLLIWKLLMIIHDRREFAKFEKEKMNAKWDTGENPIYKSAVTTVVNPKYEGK

B1: ARHGEF7 (β-PIX) (protein, UniProt Q9ES28 1-862)
chain: MNSAEQTVTWLITLGVLESPKKTISDPEVFLQASLKDGVVLCRLLERLLPGTIEKVYPEPRNESECLSNIREFLRACGASLRLETFDANDLYQGQNFNKVLSSLVTLNKVTADIGLGSDSVCARPSSHRIKSFDSLGSQSSHSRTSKLLQSQYRSLDMTDNTNSQLVVRAKFNFQQTNEDELSFSKGDVIHVTRVEEGGWWEGTHNGRTGWFPSNYVREIKPSEKPVSPKSGTLKSPPKGFDTTAINKSYYNVVLQNILETEHEYSKELQSVLSTYLRPLQTSDKLSSANTSYLMGNLEEISSFQQVLVQSLEECTKSPEAQQRVGGCFLSLMPQMRTLYLAYCANHPSAVSVLTEHSEDLGEFMETKGASSPGILVLTTGLSKPFMRLDKYPTLLKELERHMEDYHPDRQDIQKSMTAFKNLSAQCQEVRKRKELELQILTEPIRSWEGDDIKTLGSVTYMSQVTIQCAGSEEKNERYLLLFPNLLLMLSASPRMSGFIYQGKLPTTGMTITKLEDSENHRNAFEISGSMIERILVSCTSQQDLHEWVEHLQKQTKVTSVSNPTIKPHSVPSHTLPSHPLTPSSKHADSKPVALTPAYHTLPHPSHHGTPHTTISWGPLEPPKTPKPWSLSCLRPAPPLRPSAALCYKEDLSKSPKTMKKLLPKRKPERKPSDEEFAVRKSTAALEEDAQILKVIEAYCTSAKTRQTLNSTWQGTDLMHNHVLADDDQSSLDSLGRRSSLSRLEPSDLSEDSEYDSIWTAHSYRMGSASRSRKESAPQVLLPEEEKIIVEETKSNGQTVIEEKSLVDTVYALKDEVQELRQDNKKMKKSLEEEQRARKDLEKLVRKVLKNMNDPAWDETNL
B2: p120-catenin (Ctnnd1) (protein, UniProt P30999 1-938)
chain: MDDSEVESTASILASVKEQEAQFEKLTRALEEERRHVSAQLERVRVSPQDANSLMANGTLTRRHQNGRFVGDADLERQKFSDLKLNGPQDHNHLLYSTIPRMQEPGQIVETYTEEDPEGAMSVVSVETTDDGTTRRTETTVKKVVKTMTTRTVQPVPMGPDGLPVDASAVSNNYIQTLGRDFRKNGNGGPGPYVGQAGTATLPRNFHYPPDGYGRHYEDGYPGGSDNYGSLSRVTRIEERYRPSMEGYRAPSRQDVYGPQPQVRVGGSSVDLHRFHPEPYGLEDDQRSMGYDDLDYGMMSDYGTARRTGTPSDPRRRLRSYEDMIGEEVPPDQYYWAPLAQHERGSLASLDSLRKGMPPPSNWRQPELPEVIAMLGFRLDAVKSNAAAYLQHLCYRNDKVKTDVRKLKGIPILVGLLDHPKKEVHLGACGALKNISFGRDQDNKIAIKNCDGVPALVRLLRKARDMDLTEVITGTLWNLSSHDSIKMEIVDHALHALTDEVIIPHSGWEREPNEDCKPRHIEWESVLTNTAGCLRNVSSERSEARRKLRECDGLVDALIFIVQAEIGQKDSDSKLVENCVCLLRNLSYQVHREIPQAERYQEALPTVANSTGPHAASCFGAKKGKDEWFSRGKKPTEDPANDTVDFPKRTSPARGYELLFQPEVVRIYISLLKESKTPAILEASAGAIQNLCAGRWTYGRYIRSALRQEKALSAIAELLTSEHERVVKAASGALRNLAVDARNKELIGKHAIPNLVKNLPGGQQNSSWNFSEDTVVSILNTINEVIAENLEAAKKLRETQGIEKLVLINKSGNRSEKEVRAAALVLQTIWGYKELRKPLEKEGWKKSDFQVNLNNASRSQSSHSYDDSTLPLIDRNQKSDKKPDREEIPMSNMGSNTKSLDNNYSTLNERGDHNRTLDRSGDLGDMEPLKGAPLMQKI
B3: tensin-4 (protein, UniProt Q8BZ33 15-696)
chain: TPCEESRMALHPTPSPGLPALCPYYTTESWGTQPLMAPTLRKGSSDRLQQAQQAEARAHCLLQGPGEQASGASQDLESCIDFSLEALNQMILEIDPTFQLLPSGTAGPQAESTNSIMSRNKKEEPEALDIKYIEVTSTRSRYLDGPQRCSSPCATPPFGSPRSGSLFLSRDIPRETRSSSNESLIFSGNQGRGPSPLTPSSLSNAIPCRESRTSGSPLATPPGWEKGLRAPQRGSRVSILSASPVSDVSYVFGSNQSLPHSSLSSYPSSSRSLGSPASSSSSLHSLDRGSQCGRPSDAQAPSNPILGMGQPQAVQSTPVAKEQASSCPASVTNSMADIPIVLINGSPEPQSPPAQRTPGHQDSVQSRVTSPSHLCQAIKSPSKTLPDVPLPASPDGPAKDMQPTMKFVMDTSKYWFKPSITREQAINLLRTEKPGAFVIRDSSSYRGSFGLALKVQETSASAPNRPGEDSSDLIRHFLIESSAKGVHLKGADEEPYFGSLSSFVCQHSIMALALPCKLTIPQKELGGAEPASDSPTHGQTSCLKISAGCHTLYLSSVSVETLSGALAVQKAISVTLERDVLPTPTVVHFKVTEQGITLTDVQRKVFFRRHYPLSALRFCGMDPEQRKWQKYCKPSRIFGFVAKSQTEPQENVCHLFAEYDAVQPASQVISLVTALLQDTERM

The molecules below were run against MYC-BioID2-RHOU (mouse) (UniProt Q9EQT3) (assay: proximity labelling; BioID2: MYC-BioID2 bait induced with 1 μg/ml doxycycline in Krt14-rtTA mouse keratinocytes in growth conditions (low calcium), 50 μM biotin for 16 hr; lysis in 50 mM Tris pH 7.4, 500 mM NaCl, 0.2% SDS, 1 mM DTT; streptavidin beads; mass spectrometry; a hit is found in 2 of 3 RHOU replicates and in none of the GFP samples).

binding, binds:
PAK2 (from UniProt Q8CIN4 1-524) (enzyme)
paxillin (from UniProt Q8VI36 1-591)
integrin β1 (from UniProt P09055 21-798) (receptor)
EGFR (from UniProt Q01279 25-1210) (receptor)
B1
B2
B3
